In PubChem BioAssay AID330 (DTP/NCI, 2004) one finds T/C and survivor count data, which are given here for 15 compounds.

Structures are written as SMILES. The list is a part of this screen's results and no random one: it is rich in T/C values a quarter to a half above the control, in often repeated tests (any T/C) and in doses without a T/C. Other doses and runs of a compound stand elsewhere. T/C gives the treated animals as a percentage of the vehicle group. Some entries give survivors of the animals treated and no T/C: the source files T/C as zero there, which appears to mark a toxic dose or a test without result, not a measured value. Some doses without a T/C left all or most animals alive at the check, yet need not have been tolerated: survival well below the control is almost never listed, so the zero probably covers shortened survival too. Survivors were counted at the toxicity check, usually on the fifth day, unless a day is given; later deaths do not show. Schedule codes are those of the source, read here as Q, the interval in days (D) or hours (H), X, the number of doses. For survival time, the PubChem record calls one and a half times the control and up active, and a quarter to a half above the control has no call in these data; cut-offs in other NCI protocols can differ. Some doses were run more than once; the values are given in rising order. Brackets with × stand for listed records that agree. Some T/C values are followed by the survivors on the day toxicity was checked, most often the fifth; without a count, all were alive then.

The subject of this experiment is P388 leukemia ip, CD2F1 mice, survival T/C. Description: NCI In Vivo Anticancer Drug Screen. Data for tumor model P388 Leukemia (intraperitoneal) in CD2F1 (CDF1) mice. As to conditions: T/C endpoint: median survival time, higher T/C = longer survival.
[1] abbreviates: dose: 5.0 mg/kg/injection, schedule: Q01DX005 (ip), vehicle: saline.
[2] abbreviates: dose: 400.0 mg/kg/injection, schedule: Q04DX003 (ip), vehicle: saline with Tween-80.
The mark [3] stands for this setting: dose: 200.0 mg/kg/injection, schedule: Q01DX009 (ip), vehicle: Klucel (hydroxypropylcellulose) (HPC).

As for `CN(C)[C@@H]1C(=O)C(C(=O)NCN2CCN(C(=N)N=C(N)N)CC2)=C(O)[C@@]2(O)C(=O)C3=C(O)c4c(O)cccc4[C@@](C)(O)[C@H]3C[C@@H]12`, the T/C (dose: 0.31 mg/kg/injection, schedule: Q01DX005 (ip), vehicle: saline) was 126 % of control; the T/C (dose: 0.62 mg/kg/injection, schedule: Q01DX005 (ip), vehicle: saline) is 117, 118, 121 (2×), 122 % of control; the T/C (dose: 1.25 mg/kg/injection, schedule: Q01DX005 (ip), vehicle: saline) is 116, 120 (2×), 122, 136 % of control; the T/C (dose: 1.8 mg/kg/injection, schedule: Q01DX005 (ip), vehicle: saline) is 125 % of control; the T/C (dose: 1.8 mg/kg/injection, schedule: Q01DX005 (ip), vehicle: suspension in saline) was 130 % of control; the T/C (dose: 2.5 mg/kg/injection, schedule: Q01DX005 (ip), vehicle: saline) is reported as 125, 126, 131, 134, 153 % of control. The T/C was 127 % of control (dose: 3.0 mg/kg/injection, schedule: Q01DX005 (ip), vehicle: saline); 134 % of control (dose: 3.0 mg/kg/injection, schedule: Q01DX005 (ip), vehicle: suspension in saline); 116, 139, 161, 166, 186, 193 % of control under setting [1]; 130 % of control [5 of 6 alive] (dose: 5.0 mg/kg/injection, schedule: Q01DX005 (ip), vehicle: suspension in saline). The survivor count was 2 of 5 under setting [1]; 5 of 6 (dose: 8.32 mg/kg/injection, schedule: Q01DX005 (ip), vehicle: saline); 3 of 6 (dose: 8.33 mg/kg/injection, schedule: Q01DX005 (ip), vehicle: suspension in saline); 5 of 6 (dose: 10.0 mg/kg/injection, schedule: Q01DX005 (ip), vehicle: saline); 1 of 6 (dose: 13.88 mg/kg/injection, schedule: Q01DX005 (ip), vehicle: saline); 6 of 6 (dose: 13.89 mg/kg/injection, schedule: Q01DX005 (ip), vehicle: saline). For the same compound, the survivor count (dose: 13.89 mg/kg/injection, schedule: Q01DX005 (ip), vehicle: suspension in saline) is 0 of 6.
As to `BrCCN(CCBr)c1ccc2c3c(cccc13)-c1ccccc1-2`, the T/C by setting is: (dose: 1.0 mg/kg/injection, schedule: Q01DX009 (ip), vehicle: saline with Tween-80) 128 % of control; (dose: 2.0 mg/kg/injection, schedule: Q01DX009 (ip), vehicle: saline with Tween-80) 149 % of control; (dose: 12.5 mg/kg/injection, schedule: Q01DX009 (ip), vehicle: saline with Tween-80) 140 % of control; under setting [2], 141 % of control. For the same compound, the survivor count is 6 of 6 (dose: 25.0 mg/kg/injection, schedule: Q01DX009 (ip), vehicle: saline with Tween-80); 6 of 6 (dose: 50.0 mg/kg/injection, schedule: Q01DX009 (ip), vehicle: saline with Tween-80); 6 of 6 (dose: 100.0 mg/kg/injection, schedule: Q01DX009 (ip), vehicle: saline with Tween-80); 4 of 6 (dose: 200.0 mg/kg/injection, schedule: Q01DX009 (ip), vehicle: saline with Tween-80); 4 of 6 (dose: 264.0 mg/kg/injection, schedule: Q04DX003 (ip), vehicle: saline with Tween-80); 2 of 6 under setting [2]. Further, the survivor count (dose: 600.0 mg/kg/injection, schedule: Q04DX003 (ip), vehicle: saline with Tween-80) is 1 of 6.
For the compound `CC1CC=CC(=O)CC1` (stereo unspecified), under setting [3], the survivor count was 1 of 6.
In the case of `CC(C)CCCCCCCCCCCCC(=O)NCC(=O)NC1C(CO)OC(Nc2ncnc3nc[nH]c23)C(O)C1O` (stereo unspecified), the T/C was 125 and 142 % of control (dose: 0.25 mg/kg/injection, schedule: Q01DX009 (ip), vehicle: other); 137 % of control (dose: 0.5 mg/kg/injection, schedule: Q01DX009 (ip), vehicle: other); 142 % of control (dose: 1.0 mg/kg/injection, schedule: Q01DX009 (ip), vehicle: other). Moreover, the survivor count runs as follows: (dose: 2.0 mg/kg/injection, schedule: Q01DX009 (ip), vehicle: other) 6 of 6; (dose: 4.0 mg/kg/injection, schedule: Q01DX009 (ip), vehicle: other) 6 of 6.
With `CC(=O)OCC(=O)[C@@]1(O)CC[C@H]2[C@@H]3C[C@H](C)C4=CC(=O)C=C[C@]4(C)[C@@]3(F)[C@@H](O)C[C@@]21C`, where the note is “dose: 400.0 mg/kg/injection, schedule: Q01DX009 (ip), vehicle: saline with Tween-80”, the survivor count was 6 of 6.
For the compound `CC(C)(Br)C(=O)/C=C/c1ccccc1`, the survivor count (dose: 240.0 mg/kg/injection, schedule: Q01DX005 (ip), vehicle: saline with Tween-80) is reported as 2 of 6.
In the case of `CC(=O)Oc1ccc(C(O)CN(C)OC(C)=O)cc1OC(C)=O` (stereo unspecified), the survivor count is 5 of 6 (dose: 100.0 mg/kg/injection, schedule: Q01DX005 (ip), vehicle: Klucel + Tween-80) and 0 of 6 (dose: 200.0 mg/kg/injection, schedule: Q01DX005 (ip), vehicle: Klucel + Tween-80).
As for `O=C(NNC(=O)C(Cl)Cl)c1ccccn1`, the survivor count (dose: 400.0 mg/kg/injection, schedule: Q01DX009 (ip), vehicle: Klucel (hydroxypropylcellulose) (HPC)) is given as 0 of 6.
Regarding `O=C(O)CNC(=O)C(CN1CC(=O)OC1c1ccc([N+](=O)[O-])cc1)N1C(=O)c2ccccc2C1=O` (stereo unspecified), under “dose: 100.0 mg/kg/injection, schedule: Q04DX003 (ip), vehicle: saline with Tween-80”, the survivor count is reported as 6 of 6.
Regarding `CN(C)C(=O)c1cccc2ccc[n+](C)c12`, the survivor count by setting is: (dose: 0.62 mg/kg/injection, schedule: Q04DX002 (ip), vehicle: saline) 6 of 6; (dose: 1.25 mg/kg/injection, schedule: Q04DX002 (ip), vehicle: saline) 2 of 6; (dose: 2.5 mg/kg/injection, schedule: Q04DX002 (ip), vehicle: saline) 0 of 6; (dose: 12.5 mg/kg/injection, schedule: Q04DX002 (ip), vehicle: saline) 0 of 6; (dose: 25.0 mg/kg/injection, schedule: Q04DX002 (ip), vehicle: saline) 0 of 6; (dose: 50.0 mg/kg/injection, schedule: Q04DX002 (ip), vehicle: saline) 0 of 6.
As to `CCSC(C(OC(C)=O)C(OC(C)=O)C(COC(C)=O)OC(C)=O)n1cc(F)c(=O)[nH]c1=O` (stereo unspecified), the survivor count by setting is: (dose: 25.0 mg/kg/injection, schedule: Q01DX009 (ip), vehicle: other) 6 of 6; (dose: 50.0 mg/kg/injection, schedule: Q01DX009 (ip), vehicle: other) 6 of 6; (dose: 100.0 mg/kg/injection, schedule: Q01DX009 (ip), vehicle: other) 6 of 6; (dose: 200.0 mg/kg/injection, schedule: Q01DX009 (ip), vehicle: other) 6 of 6.
As to `N#CC(C#N)=NNc1ccc([N+](=O)[O-])cc1Cl`, the survivor count by setting is: (dose: 25.0 mg/kg/injection, schedule: Q01DX009 (ip), vehicle: Klucel (hydroxypropylcellulose) (HPC)) 0 of 6; (dose: 50.0 mg/kg/injection, schedule: Q01DX009 (ip), vehicle: Klucel (hydroxypropylcellulose) (HPC)) 0 of 6; (dose: 100.0 mg/kg/injection, schedule: Q01DX009 (ip), vehicle: Klucel (hydroxypropylcellulose) (HPC)) 1 of 6; under setting [3], 0 of 6.
`O=C(Nc1nccs1)Nc1cc(C(F)(F)F)ccc1Cl`: the survivor count under setting [3] was 0 of 6.
In the case of `Cc1ccc2c(c1)nc(-c1ccccn1)n2CCc1ccccn1`, for the setting “dose: 400.0 mg/kg/injection, schedule: Q04DX002 (ip), vehicle: Klucel (hydroxypropylcellulose) (HPC)”, the survivor count is on record as 6 of 6.
As for `CN1CCC2(CC1)OCCCO2`, the survivor count was 4 of 6 (dose: 200.0 mg/kg/injection, schedule: Q01DX005 (ip), vehicle: saline with Tween-80); 0 of 6 (dose: 400.0 mg/kg/injection, schedule: Q01DX005 (ip), vehicle: saline with Tween-80); 0 of 6 (dose: 500.0 mg/kg/injection, schedule: Q01DX001 (ip), vehicle: saline with Tween-80); 0 of 6 (dose: 1000.0 mg/kg/injection, schedule: Q01DX001 (ip), vehicle: saline with Tween-80); 0 of 6 (dose: 2000.0 mg/kg/injection, schedule: Q01DX001 (ip), vehicle: saline with Tween-80).
